Patent US20240132589A1
Residue numbers refer to the chain shown, from its start. Results are given in words; binding and its absence hold for the method and conditions named. Some entries that bind do so weakly or less than the wild type.

Chains of the proteins cited; added tags and fusions are not shown. Lines headed by an entry give the natural chain unless they say otherwise; changes in a name come on top.
UniProt Q8N423: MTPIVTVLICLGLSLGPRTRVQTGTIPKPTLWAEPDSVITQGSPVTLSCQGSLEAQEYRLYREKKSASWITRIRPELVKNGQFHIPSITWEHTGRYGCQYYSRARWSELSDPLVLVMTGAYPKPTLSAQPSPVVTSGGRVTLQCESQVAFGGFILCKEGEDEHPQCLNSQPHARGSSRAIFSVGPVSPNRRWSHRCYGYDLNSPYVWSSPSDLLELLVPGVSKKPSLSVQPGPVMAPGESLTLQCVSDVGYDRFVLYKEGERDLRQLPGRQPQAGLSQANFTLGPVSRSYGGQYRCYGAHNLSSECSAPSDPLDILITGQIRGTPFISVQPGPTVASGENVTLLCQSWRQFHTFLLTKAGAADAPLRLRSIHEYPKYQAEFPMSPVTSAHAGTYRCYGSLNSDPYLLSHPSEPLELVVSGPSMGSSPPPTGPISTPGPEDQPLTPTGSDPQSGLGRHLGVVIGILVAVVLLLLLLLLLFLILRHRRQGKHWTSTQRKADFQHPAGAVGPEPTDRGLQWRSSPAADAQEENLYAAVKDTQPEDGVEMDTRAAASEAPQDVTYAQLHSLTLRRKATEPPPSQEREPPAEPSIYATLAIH

B1: B2H4-41 (antibody, V domains shown)
VH: EVQLLESGGRLVQPGTSLRLSCAVSGFSLSTYAMSWVRQAPGKGLEWIGWIYNDGSTYYAAWAKGRFTISKDTSKTTLYLQMNSLTVEDTATYFCAREGDYIGYFNIWGQGTLVTVSS
VL: DIQMTQSPSSLSASVGDRVTITCQASQSIGSNLAWYQLKPGQRPKLLIYAAATLASGVPSRFKGSGSGTDFTLTISSLQSEDAATYYCQSYVSGSSDVAFGGGTEVVVK
B2: B2H4-51 (antibody, V domains shown)
VH: B1 VH with R10G, R19T, V24A, M82I, N83T, T86R, V87A
VL: B1 VL
B3: B2H4-13 (antibody, V domains shown)
VH: B1 VH with E1Q, L5E, L11V, T16R, V24A, L78V, Y79F, T86K, V87P, E88D
VL: B1 VL with Q3E, L11V, I21L, L38Q, R43A, S80P, A83F
B4: B2H4-25 (antibody, V domains shown)
VH: EVQLVESGGDLATPGGSLRLSCAVSGFSLSTYAMSWVRQAPGKGLEWVGWIYNDGSTYYAAWAKGRFTISKDTSKTTVYLQMTSLRAEDTALYFCAREGDYIGYFNIWGQGTLVTVSS
VL: DVVMTQTPSSVSAALGGTVTIKCQASQSIGSNLAWYQLKPGQRPKLLIYAAATLASGGSSRFKGSGSGTDFTLTISSLEPADAATYYCQSYVSGSSDVAFGGGTEVVVK
B5: B2H4-35 (antibody, V domains shown)
VH: QVQLVESGGRVVQPGTPLRLSCAASGFSLSTYAMSWVRQAPGKGLEWVAWIYNDGSTYYAAWAKGRFTISRDTSKNTLYLQTNSLKPDDTAVYYCAREGDYIGYFNIWGQGTLVTVSS
VL: B4 VL
B6: B2H4-54 (antibody, V domains shown)
VH: B1 VH with R10G, R19T, V24A, M82I, N83T, T86R, V87A
VL: DIQMTQSPSSVSASVGDRVTITCQASQSIGSNLAWYQQKPGKAPKLLIYAAATLASGVPLRFSGSGSGTDFTLTISNLQPEDSATYYCQSYVSGSSDVAFGGGTKVEIK
B7: B2H4-24 (antibody, V domains shown)
VH: B4 VH
VL: B6 VL
B8: B2H4-45 (antibody, V domains shown)
VH: B1 VH
VL: B4 VL

target: Human LILRB2 on stably transduced HEK293T cells (human) (UniProt Q8N423); assay: flow cytometry, HEK293T cells stably expressing human LILRB2

Binder	binding
B1	binds
B2	binds
B3	binds
B4	binds
B5	binds
B6	binds
B7	binds
B8	binds

target: Recombinant human LILRB2 protein (ELISA antigen) (human) (UniProt Q8N423); assay: ELISA, plate-coated recombinant human LILRB2

Binder	binding
B1	binds
B2	binds
B3	binds
B4	binds
B5	binds
B6	binds
B7	binds
B8	binds
